Test results reported in PubChem BioAssay AID1332 (Southern Research Institute, 2008).
In brackets after ≈: the same amount, converted by molar mass. Some of the results follow. These are further read-outs of the screen, such as a control signal, another cell line or another target. No call is given for them. Positions of bridges follow the written chain, without caps; N, C: chain ends. Non-standard residues stand in square brackets, D forms with d. Residues, ends and D or L forms follow the SMILES beside them. *: point of attachment. X1 = CCC(C)C(N)C1=NC(C(=O)*)CS1; dOrn = NCCC[C@@H](N)C(=O)O

Test: Mycobacterium tuberculosis H37Rv growth inhibition, confirmatory dose response, cytotoxicity (AID 1332);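 on CC50: Vero cells exposed to compounds for 72 hours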;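 on IC50: bacteria incubated 7 days before adding Alamar blue readout reagent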
Settings: M. tuberculosis H37Rv growth inhibition; CC50: measured here: Vero cell cytotoxicity; IC50: measured here: IC50 H37Rv replicates

| Structure (SMILES) | IC50 | CC50 |
| --- | --- | --- |
| Clc1cnccn1 | > 20 µg/mL | – |
| C[C@]1(OC(=O)/C=C/c2ccccc2)C[C@@H](O)[C@]2(O)C=CO[C@@H](O[C@@H]3O[C@H](CO)[C@@H](O)[C@H](O)[C@H]3O)[C@@H]21 | > 20 µg/mL | – |
| CCCN1C[C@H](CSC)C[C@@H]2c3cccc4[nH]cc(c34)C[C@H]21 | > 20 µg/mL | – |
| CSc1ccc2c(c1)C(N1CCN(C)CC1)Cc1ccccc1S2 (stereo not given) | 2.75 µg/mL (≈ 7.71 µM) | > 6 µg/mL |
| Cc1cc(C(C)(C)C)c(O)c(C)c1CC1=NCCN1 | > 20 µg/mL | – |
| CN(C)CCCN1c2ccccc2Sc2ccccc21 | > 20 µg/mL | > 6 µg/mL |
| NS(=O)(=O)c1cc(C(=O)O)cc(N2CCCC2)c1Oc1ccccc1 | > 20 µg/mL | – |
| COc1cc(S(C)=O)ccc1-c1nc2ncccc2[nH]1 (stereo not given) | > 20 µg/mL | – |
| COc1ccc([C@@H]2CC(=O)c3c(O)cc(O[C@@H]4O[C@H](CO[C@@H]5O[C@@H](C)[C@H](O)[C@@H](O)[C@H]5O)[C@@H](O)[C@H](O)[C@H]4O)cc3O2)cc1O | > 20 µg/mL | – |
| OCC(O)CN1CCN(c2ccccc2)CC1 (stereo not given) | > 20 µg/mL | – |
| c1ccc2c(c1)OCC(C1=NCCN1)O2 (stereo not given) | > 20 µg/mL | > 6 µg/mL |
| C=C1C/C(=C/C)C(=O)O[C@@H]2CCN3CC=C(COC(=O)[C@]1(C)O)[C@H]23 | > 20 µg/mL | – |
| C[C@@H]1O[C@@H](O[C@@H]2C=C3CCC4C(CC[C@]5(C)[C@@H](c6ccc(=O)oc6)CC[C@]45O)[C@@]3(C)CC2)[C@H](O)[C@H](O)[C@H]1O (stereo not given in full) | > 20 µg/mL | > 6 µg/mL |
| COc1cc(=O)n(C)c2c(OCC(O)C(C)(C)O)cccc12 (stereo not given) | > 20 µg/mL | – |
| CN(C)CCCC1(c2ccc(F)cc2)OCc2cc(C#N)ccc21 (stereo not given) | > 20 µg/mL | – |
| O=C(O)CNC(=O)C(CS)Cc1ccccc1 (stereo not given) | > 20 µg/mL | – |
| CCC(C)C(N)C1=NC(C(=O)N[C@@H](CC(C)C)C(=O)N[C@H](CCC(=O)O)C(=O)N[C@H](C(=O)N[C@H]2CCCCNC(=O)[C@H](CC(N)=O)NC(=O)[C@@H](CC(=O)O)NC(=O)[C@H](Cc3cnc[nH]3)NC(=O)[C@@H](Cc3ccccc3)NC(=O)[C@H]([C@@H](C)CC)NC(=O)[C@@H](CCCN)NC2=O)[C@@H](C)CC)CS1 (stereo not given in full) (X1-L[dE]IK[dOrn]I[dF]H[dD]N; lactam 4-C) | > 20 µg/mL | – |
| CC(C)(C)NCC(O)c1ccc(O)c(CO)c1 (stereo not given) | > 20 µg/mL | – |
| CC[N+]1(C)CCCC(OC(=O)C(O)(c2ccccc2)c2ccccc2)C1 (stereo not given) | > 20 µg/mL | – |

| Structure (SMILES) | IC50 | CC50 |
| --- | --- | --- |
| COc1ccc2c(c1OC)CN1CCc3cc4c(cc3C1C2)OCO4 (stereo not given) | > 20 µg/mL | – |
| O=C(NCC1CCCCN1)c1cc(OCC(F)(F)F)ccc1OCC(F)(F)F (stereo not given) | > 20 µg/mL | – |
| NC(N)=NCCN1CCCCCCC1 | > 20 µg/mL | – |
| CCN(CC)C(=O)N[C@H]1C[C@@H]2c3cccc4[nH]cc(c34)C[C@H]2N(C)C1 | > 20 µg/mL | – |
| O=C(c1ccc(OCCN2CCCCC2)cc1)c1c(-c2ccc(O)cc2)sc2cc(O)ccc12 | > 20 µg/mL | > 6 µg/mL |
| COc1cc2c(c(OC)c1OC)-c1ccc(OC)c(=O)cc1[C@@H](NC(C)=O)CC2 | > 20 µg/mL | 0.327 µg/mL (≈ 0.819 µM) |
| CC(CN1c2ccccc2Sc2ccccc21)N(C)C (stereo not given) | > 20 µg/mL | > 6 µg/mL |
| NS(=O)(=O)c1cc2c(cc1C(F)(F)F)NC(Cc1ccccc1)NS2(=O)=O (stereo not given) | > 20 µg/mL | – |
| CCOC(=O)C1=C(C)NC(C)=C(C(=O)OC)C1c1cccc([N+](=O)[O-])c1 (stereo not given) | > 20 µg/mL | – |
| CCn1cc(C(=O)O)c(=O)c2cc(F)c(N3CCNCC3)cc21 | 0.686 µg/mL (≈ 2.15 µM) | – |
| CC(C)(Oc1ccc(C2CC2(Cl)Cl)cc1)C(=O)O (stereo not given) | > 20 µg/mL | – |
| C[C@@H](O)[C@H]1C(=O)N2C(C(=O)O)=C(SCCN=CN)C[C@H]12 | > 20 µg/mL | – |
| O=C(NCNC(=O)NC1C(=O)NC(=O)N1CO)NC1C(=O)NC(=O)N1CO (stereo not given) | > 20 µg/mL | – |
| CC(=O)O[C@H]1CC[C@@]2(C)C(=CC[C@@H]3[C@@H]2CC[C@]2(C)C(=O)CC[C@@H]32)C1 | > 20 µg/mL | – |
| CNC1(C)C2CCC(C2)C1(C)C (stereo not given) | > 20 µg/mL | – |
| CN[C@@H]1[C@H](O[C@H]2[C@H](O[C@@H]3[C@@H](O)[C@H](O)[C@@H](N=C(N)N)[C@H](O)[C@H]3N=C(N)N)O[C@@H](C)[C@]2(O)C=O)O[C@@H](CO)[C@H](O)[C@H]1O | 0.794 µg/mL (≈ 1.37 µM) | – |
| CCC(C)(CN(C)C)OC(=O)c1ccccc1 (stereo not given) | > 20 µg/mL | – |
| Cn1c(=O)c2c(ncn2CC(O)CO)n(C)c1=O (stereo not given) | > 20 µg/mL | – |
| CN1C[C@H](CNC(=O)OCc2ccccc2)C[C@@H]2c3cccc4c3c(cn4C)C[C@H]21 | 4.17 µg/mL (≈ 10.3 µM) | > 6 µg/mL |

| Structure (SMILES) | IC50 | CC50 |
| --- | --- | --- |
| Oc1ccc2c3c1O[C@H]1[C@@H](O)CC[C@@]4(O)[C@@H](C2)N(CC2CCC2)CC[C@]314 | > 20 µg/mL | – |
| CC[C@]12CCCN3CCc4c(n(c5ccccc45)[C@@](O)(C(=O)OC)C1)[C@@H]32 | > 20 µg/mL | – |
| COC1=CC(=O)O[C@@H](/C=C/c2ccccc2)C1 | > 20 µg/mL | – |
| CC(CCc1ccc(O)cc1)NCCc1ccc(O)c(O)c1 (stereo not given) | > 20 µg/mL | – |
| CN1CCc2cc3c(cc2[C@H]1[C@@H]1OC(=O)c2c1ccc1c2OCO1)OCO3 | > 20 µg/mL | – |
| CCSc1ccc2c(c1)N(CCCN1CCN(C)CC1)c1ccccc1S2 | 3.84 µg/mL (≈ 9.61 µM) | > 6 µg/mL |
| CN(C)CCC(c1ccccc1)c1ccccn1 (stereo not given) | > 20 µg/mL | – |
| C[C@]12CC[C@H](O)C[C@H]1CC[C@@H]1[C@@H]2CC[C@]2(C)[C@@H](C3=CC(=O)OC3)CC[C@]12O | > 20 µg/mL | 0.415 µg/mL (≈ 1.11 µM) |
| O=C(O)c1cc(=O)c2c(OCC(O)COc3cccc4oc(C(=O)O)cc(=O)c34)cccc2o1 | > 20 µg/mL | – |
| CC(C)c1cccc(C(C)C)c1O | > 20 µg/mL | – |
| CC(=O)OC(C)C[N+](C)(C)C (stereo not given) | > 20 µg/mL | – |
| C=CCc1ccccc1OCC(O)CNC(C)C (stereo not given) | > 20 µg/mL | – |
| CCOC(=O)c1ccc(OC(=O)CCCCCN=C(N)N)cc1 | > 20 µg/mL | – |
| CCCC(C(=O)OCCN(CC)CC)(c1ccccc1)c1ccccc1 | > 20 µg/mL | > 6 µg/mL |
| C[C@H](CCC(=O)NCC(=O)O)[C@H]1CC[C@H]2[C@@H]3[C@H](O)C[C@@H]4C[C@H](O)CC[C@]4(C)[C@H]3C[C@H](O)[C@]12C | > 20 µg/mL | – |
| Clc1ccc(COC(Cn2ccnc2)c2ccc(Cl)cc2Cl)cc1 (stereo not given) | 1.66 µg/mL (≈ 4.34 µM) | > 6 µg/mL |
| Clc1ccccc1C(c1ccccc1)(c1ccccc1)n1ccnc1 | 1.45 µg/mL (≈ 4.2 µM) | > 6 µg/mL |
| CN(C)CCOC(c1ccccc1)c1ccccc1 (tested in a mixture with another compound) | > 20 µg/mL | – |
| Cc1c(C)c2c(c(C)c1O)CC[C@@](C)(CCC[C@H](C)CCC[C@H](C)CCCC(C)C)O2 | > 20 µg/mL | – |

One compound at a time, from the list above. Order of values: IC50 | CC50
C[C@]12CC[C@H](O)C[C@H]1CC[C@@H]1[C@@H]2CC[C@]2(C)[C@@H](C3=CC(=O)OC3)CC[C@]12O as listed: > 20 µg/mL | 0.415 µg/mL (≈ 1.11 µM)
COc1ccc2c(c1OC)CN1CCc3cc4c(cc3C1C2)OCO4 (stereo not given) as listed: > 20 µg/mL | –
CC[C@]12CCCN3CCc4c(n(c5ccccc45)[C@@](O)(C(=O)OC)C1)[C@@H]32 as listed: > 20 µg/mL | –
CN(C)CCC(c1ccccc1)c1ccccn1 (stereo not given) as listed: > 20 µg/mL | –
